Results from the supplement of paper PMC12819154, “High-throughput peptide-centric local stability assay extends protein–ligand identification to membrane proteins, tissues and bacteria” (Nature Structural & Molecular Biology, 2025).
This is one part of the list. Most values lie at the level of the controls, where differences are scatter.

By UniProt entry, the sequences of proteins in these tests, tags left out. Where a name states a change or a piece, a line headed by the entry shows the natural chain unless it says otherwise.
UniProt Q9CQQ8: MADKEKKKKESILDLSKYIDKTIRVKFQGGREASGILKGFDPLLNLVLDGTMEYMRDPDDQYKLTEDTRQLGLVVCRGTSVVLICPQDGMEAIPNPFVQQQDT
UniProt Q99K90: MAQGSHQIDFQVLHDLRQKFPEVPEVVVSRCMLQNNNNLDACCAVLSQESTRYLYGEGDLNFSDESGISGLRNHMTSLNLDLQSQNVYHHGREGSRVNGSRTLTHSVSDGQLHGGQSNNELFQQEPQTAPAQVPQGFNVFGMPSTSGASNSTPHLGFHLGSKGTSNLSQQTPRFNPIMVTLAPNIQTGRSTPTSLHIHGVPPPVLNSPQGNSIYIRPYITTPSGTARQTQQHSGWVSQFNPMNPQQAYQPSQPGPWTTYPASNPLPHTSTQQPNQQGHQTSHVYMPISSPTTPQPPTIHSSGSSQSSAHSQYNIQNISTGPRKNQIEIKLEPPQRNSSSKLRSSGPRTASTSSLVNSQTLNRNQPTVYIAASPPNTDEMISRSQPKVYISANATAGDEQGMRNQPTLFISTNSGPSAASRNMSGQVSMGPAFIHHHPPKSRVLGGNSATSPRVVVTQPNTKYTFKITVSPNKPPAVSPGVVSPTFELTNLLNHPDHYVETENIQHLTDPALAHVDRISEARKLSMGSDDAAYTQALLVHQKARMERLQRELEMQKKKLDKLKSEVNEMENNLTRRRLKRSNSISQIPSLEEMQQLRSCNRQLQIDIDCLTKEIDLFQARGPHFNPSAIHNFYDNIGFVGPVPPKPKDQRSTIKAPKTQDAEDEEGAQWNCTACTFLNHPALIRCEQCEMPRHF
UniProt Q9CQ85: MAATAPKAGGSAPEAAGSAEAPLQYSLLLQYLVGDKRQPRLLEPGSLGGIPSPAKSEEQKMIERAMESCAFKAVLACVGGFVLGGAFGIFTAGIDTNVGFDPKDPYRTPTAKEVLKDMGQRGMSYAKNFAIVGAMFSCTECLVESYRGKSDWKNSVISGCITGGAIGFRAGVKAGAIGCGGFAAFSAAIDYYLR
UniProt Q9CRC9: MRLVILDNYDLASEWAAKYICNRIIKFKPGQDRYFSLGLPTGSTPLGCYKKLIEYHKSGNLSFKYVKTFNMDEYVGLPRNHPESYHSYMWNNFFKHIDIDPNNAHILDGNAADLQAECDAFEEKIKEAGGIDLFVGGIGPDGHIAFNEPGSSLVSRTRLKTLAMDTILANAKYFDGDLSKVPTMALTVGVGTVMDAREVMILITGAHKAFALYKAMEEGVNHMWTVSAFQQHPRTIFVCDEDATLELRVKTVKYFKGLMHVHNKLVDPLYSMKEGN
UniProt Q9CQF9: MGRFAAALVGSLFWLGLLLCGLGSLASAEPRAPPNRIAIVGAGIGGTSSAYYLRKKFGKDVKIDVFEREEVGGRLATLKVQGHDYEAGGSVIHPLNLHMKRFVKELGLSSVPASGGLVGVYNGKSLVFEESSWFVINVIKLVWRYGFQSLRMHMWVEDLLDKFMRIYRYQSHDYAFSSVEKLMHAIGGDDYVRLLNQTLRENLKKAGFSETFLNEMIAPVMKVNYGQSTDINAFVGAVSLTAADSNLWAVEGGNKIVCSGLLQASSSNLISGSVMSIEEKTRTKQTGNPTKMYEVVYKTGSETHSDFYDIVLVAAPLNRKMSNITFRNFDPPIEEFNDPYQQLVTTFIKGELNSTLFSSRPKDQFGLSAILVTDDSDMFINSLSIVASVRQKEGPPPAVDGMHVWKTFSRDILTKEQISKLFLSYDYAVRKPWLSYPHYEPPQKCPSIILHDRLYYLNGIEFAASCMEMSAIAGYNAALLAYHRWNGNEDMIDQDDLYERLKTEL
UniProt Q9CQH3: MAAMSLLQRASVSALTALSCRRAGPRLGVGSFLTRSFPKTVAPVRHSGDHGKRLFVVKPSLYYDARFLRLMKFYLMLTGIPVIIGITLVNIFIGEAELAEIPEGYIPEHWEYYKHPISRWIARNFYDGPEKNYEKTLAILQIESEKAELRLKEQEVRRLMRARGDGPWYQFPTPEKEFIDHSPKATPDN
UniProt Q99NB9: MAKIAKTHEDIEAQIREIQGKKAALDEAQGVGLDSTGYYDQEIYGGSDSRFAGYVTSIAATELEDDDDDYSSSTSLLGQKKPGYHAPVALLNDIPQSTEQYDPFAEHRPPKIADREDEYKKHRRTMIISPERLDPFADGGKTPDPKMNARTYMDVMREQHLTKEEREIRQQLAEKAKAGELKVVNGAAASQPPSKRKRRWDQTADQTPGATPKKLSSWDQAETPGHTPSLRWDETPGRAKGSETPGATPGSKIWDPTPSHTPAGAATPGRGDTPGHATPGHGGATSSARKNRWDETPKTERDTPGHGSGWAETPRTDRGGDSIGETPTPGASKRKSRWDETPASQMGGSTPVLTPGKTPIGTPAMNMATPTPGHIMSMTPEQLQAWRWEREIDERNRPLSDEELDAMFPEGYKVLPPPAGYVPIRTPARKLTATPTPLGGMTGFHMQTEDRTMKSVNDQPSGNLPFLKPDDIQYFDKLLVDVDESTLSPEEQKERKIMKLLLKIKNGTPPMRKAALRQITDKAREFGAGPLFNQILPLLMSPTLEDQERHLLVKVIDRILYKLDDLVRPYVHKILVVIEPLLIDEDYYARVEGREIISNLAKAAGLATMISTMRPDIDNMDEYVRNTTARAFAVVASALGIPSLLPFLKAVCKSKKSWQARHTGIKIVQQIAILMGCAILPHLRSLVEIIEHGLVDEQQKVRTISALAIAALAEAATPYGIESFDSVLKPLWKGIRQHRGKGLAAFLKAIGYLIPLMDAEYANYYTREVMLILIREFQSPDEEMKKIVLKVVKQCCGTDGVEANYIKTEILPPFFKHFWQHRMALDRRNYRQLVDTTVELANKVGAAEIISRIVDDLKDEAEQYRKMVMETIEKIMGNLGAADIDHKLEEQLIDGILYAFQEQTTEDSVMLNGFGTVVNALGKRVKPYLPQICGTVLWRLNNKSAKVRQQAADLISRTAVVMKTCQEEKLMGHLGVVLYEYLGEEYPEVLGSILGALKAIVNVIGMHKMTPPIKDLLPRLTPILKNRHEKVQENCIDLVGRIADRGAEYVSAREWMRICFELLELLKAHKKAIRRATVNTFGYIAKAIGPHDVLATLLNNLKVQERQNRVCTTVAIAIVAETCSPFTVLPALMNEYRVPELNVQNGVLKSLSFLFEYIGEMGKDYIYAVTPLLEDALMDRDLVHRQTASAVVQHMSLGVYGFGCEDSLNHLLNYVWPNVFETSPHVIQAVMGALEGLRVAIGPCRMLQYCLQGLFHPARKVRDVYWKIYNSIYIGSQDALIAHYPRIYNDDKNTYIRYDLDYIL
UniProt Q9BCZ4, whole entry: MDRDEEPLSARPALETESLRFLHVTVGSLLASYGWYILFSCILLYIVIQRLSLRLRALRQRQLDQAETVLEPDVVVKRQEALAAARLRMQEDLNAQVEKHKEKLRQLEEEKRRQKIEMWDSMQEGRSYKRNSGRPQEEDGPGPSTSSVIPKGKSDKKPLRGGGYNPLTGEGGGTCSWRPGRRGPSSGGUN
UniProt Q99K28: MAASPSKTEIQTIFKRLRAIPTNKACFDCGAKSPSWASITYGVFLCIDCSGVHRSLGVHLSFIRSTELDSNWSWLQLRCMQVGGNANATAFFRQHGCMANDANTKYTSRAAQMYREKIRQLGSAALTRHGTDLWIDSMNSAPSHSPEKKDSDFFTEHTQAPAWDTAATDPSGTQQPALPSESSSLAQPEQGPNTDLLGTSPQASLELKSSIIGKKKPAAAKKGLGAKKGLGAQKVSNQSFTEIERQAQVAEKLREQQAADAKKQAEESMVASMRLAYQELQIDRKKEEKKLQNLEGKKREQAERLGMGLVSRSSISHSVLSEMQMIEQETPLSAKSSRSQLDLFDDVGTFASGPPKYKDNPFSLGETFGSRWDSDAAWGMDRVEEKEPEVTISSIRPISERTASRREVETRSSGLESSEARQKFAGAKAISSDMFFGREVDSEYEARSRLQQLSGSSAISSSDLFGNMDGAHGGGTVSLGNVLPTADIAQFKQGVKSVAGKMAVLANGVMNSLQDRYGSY
UniProt Q9CX25: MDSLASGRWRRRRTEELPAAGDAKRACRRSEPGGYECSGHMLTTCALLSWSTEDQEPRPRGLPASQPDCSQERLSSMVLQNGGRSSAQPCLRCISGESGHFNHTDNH
UniProt Q99MR8: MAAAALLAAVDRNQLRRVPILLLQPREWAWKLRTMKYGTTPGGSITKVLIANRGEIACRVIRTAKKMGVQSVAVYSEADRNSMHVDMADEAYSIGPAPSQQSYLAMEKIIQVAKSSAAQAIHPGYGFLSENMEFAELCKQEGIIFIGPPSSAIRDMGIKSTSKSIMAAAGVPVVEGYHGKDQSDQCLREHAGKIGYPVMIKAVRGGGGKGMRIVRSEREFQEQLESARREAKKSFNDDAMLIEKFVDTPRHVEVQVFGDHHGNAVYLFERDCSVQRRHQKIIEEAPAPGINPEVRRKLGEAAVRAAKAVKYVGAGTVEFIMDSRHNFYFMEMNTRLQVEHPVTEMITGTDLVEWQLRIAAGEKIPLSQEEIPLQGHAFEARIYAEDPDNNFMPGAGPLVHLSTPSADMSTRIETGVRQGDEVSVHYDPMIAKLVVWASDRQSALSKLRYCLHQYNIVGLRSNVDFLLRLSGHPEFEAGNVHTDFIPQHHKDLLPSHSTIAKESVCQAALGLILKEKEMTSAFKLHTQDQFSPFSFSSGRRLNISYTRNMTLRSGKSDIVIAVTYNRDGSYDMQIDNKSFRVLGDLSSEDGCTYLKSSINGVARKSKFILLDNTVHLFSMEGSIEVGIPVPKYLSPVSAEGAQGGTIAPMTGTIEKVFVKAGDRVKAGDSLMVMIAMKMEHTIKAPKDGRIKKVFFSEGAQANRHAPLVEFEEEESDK
UniProt Q9CQI3, whole entry: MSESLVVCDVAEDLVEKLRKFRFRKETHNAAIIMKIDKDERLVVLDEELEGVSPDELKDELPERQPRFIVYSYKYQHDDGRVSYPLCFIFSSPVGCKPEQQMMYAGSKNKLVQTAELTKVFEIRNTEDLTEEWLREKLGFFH
UniProt Q9CWS0: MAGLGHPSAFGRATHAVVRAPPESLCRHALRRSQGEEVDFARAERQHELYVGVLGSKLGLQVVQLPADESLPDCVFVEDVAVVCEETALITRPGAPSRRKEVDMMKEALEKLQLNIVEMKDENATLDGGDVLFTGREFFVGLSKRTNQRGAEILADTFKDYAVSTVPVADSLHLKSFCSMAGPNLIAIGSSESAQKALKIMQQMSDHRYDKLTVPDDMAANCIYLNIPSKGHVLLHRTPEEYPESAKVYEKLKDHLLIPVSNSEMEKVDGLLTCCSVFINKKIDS
UniProt Q9CQB5: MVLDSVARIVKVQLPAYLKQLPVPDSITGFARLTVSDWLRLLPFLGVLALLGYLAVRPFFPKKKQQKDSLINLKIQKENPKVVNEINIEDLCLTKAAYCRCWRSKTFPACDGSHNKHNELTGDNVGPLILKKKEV
UniProt Q9CRB9: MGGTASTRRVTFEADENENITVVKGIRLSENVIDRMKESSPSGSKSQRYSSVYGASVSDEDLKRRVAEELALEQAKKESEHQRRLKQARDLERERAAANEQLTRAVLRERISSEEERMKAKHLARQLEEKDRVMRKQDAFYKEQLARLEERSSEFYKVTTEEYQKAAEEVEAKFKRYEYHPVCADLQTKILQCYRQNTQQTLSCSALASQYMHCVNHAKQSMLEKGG
UniProt Q99KU0: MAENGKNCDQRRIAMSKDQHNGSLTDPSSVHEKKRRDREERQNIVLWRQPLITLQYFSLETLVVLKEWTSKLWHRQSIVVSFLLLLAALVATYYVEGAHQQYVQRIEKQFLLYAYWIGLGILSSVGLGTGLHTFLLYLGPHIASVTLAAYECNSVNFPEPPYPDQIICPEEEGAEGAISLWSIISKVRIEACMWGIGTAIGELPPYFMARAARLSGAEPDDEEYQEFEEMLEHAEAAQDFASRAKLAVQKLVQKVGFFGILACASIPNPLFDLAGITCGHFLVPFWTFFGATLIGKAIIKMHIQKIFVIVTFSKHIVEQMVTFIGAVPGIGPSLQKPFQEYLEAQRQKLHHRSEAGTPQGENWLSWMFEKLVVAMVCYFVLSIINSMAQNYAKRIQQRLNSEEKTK
UniProt Q9CWU4: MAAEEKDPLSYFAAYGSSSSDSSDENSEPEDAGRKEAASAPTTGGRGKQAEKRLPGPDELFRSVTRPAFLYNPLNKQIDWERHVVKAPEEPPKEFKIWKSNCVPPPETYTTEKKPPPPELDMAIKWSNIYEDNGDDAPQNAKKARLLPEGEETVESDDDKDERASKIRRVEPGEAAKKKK
UniProt Q9CQF3, whole entry: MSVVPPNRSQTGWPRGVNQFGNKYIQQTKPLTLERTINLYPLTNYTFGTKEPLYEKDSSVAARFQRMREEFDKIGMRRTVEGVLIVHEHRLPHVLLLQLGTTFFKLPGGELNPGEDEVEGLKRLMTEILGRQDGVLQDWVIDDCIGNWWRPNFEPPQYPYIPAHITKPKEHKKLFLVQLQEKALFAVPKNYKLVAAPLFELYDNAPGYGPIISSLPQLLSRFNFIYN
UniProt Q9CQJ8: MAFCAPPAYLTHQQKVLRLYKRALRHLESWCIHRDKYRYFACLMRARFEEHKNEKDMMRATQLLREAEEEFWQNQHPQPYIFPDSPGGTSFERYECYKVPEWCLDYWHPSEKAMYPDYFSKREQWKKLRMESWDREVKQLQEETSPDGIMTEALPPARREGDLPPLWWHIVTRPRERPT

Compound: CN[C@@H]1C[C@H]2O[C@@](C)([C@@H]1OC)n1c3ccccc3c3c4c(c5c6ccccc6n2c5c31)C(=O)NC4 [staurosporine]
Assay: log2 fold change of pooled soluble protein (PISA), ligand vs vehicle (log2 ratio); higher = more thermally stabilized
Details: ligand concentration: 20 uM; assay format: PISA pool 52.9/55.5/58.6 C

Target | log2 fold change of pooled soluble protein
UniProt Q99KC8 | 0.0243
UniProt Q9CQQ8 | -0.0621
UniProt Q99N42 | -0.0173
UniProt Q9CW79 | 0.244
UniProt Q99JF8 | -0.0457
UniProt Q99K90 | 0.186
UniProt Q9CPU0 | -0.0857
UniProt Q9CQ85 | 0.0406
UniProt Q9CR95 | -0.0169
UniProt Q99KH8 | 0.469
UniProt Q9CRC9 | 0.129
UniProt Q9CQF9 | -0.167
UniProt Q9CQH3 | 0.145
UniProt Q99NB9 | -0.122
UniProt Q9BCZ4 | -0.17
UniProt Q9CQX8 | -0.314
UniProt Q99K28 | -0.0741
UniProt Q9CR59 | -0.119

Two entries from above, with tabs.
Target	log2 fold change of pooled soluble protein
UniProt Q9CW79	0.244
UniProt Q99JF8	-0.0457

(cont.)

Target | log2 fold change of pooled soluble protein
UniProt Q9CX25 | 0.301
UniProt Q99MR8 | 0.0359
UniProt Q9CQI3 | -0.223
UniProt Q99KG5 | 0.176
UniProt Q9CWS0 | -0.0186
UniProt Q9CQB5 | -0.104
UniProt Q99K01 | -0.193
UniProt Q9CQ73 | 0.0603
UniProt Q9CRB9 | -0.0535
UniProt Q99KU0 | 0.18
UniProt Q9CWU4 | -0.142
UniProt Q9CQF3 | -0.0594
UniProt Q9CQJ8 | -0.297
UniProt Q99LS3 | -0.217
UniProt Q99MU3 | -0.161
Q9CPZ6;Q9CQZ0 | -0.143
UniProt Q99K74 | 0.0391
UniProt Q9CPX6 | 0.0168
